Source: PubChem BioAssay AID1347075 (National Center for Advancing Translational Sciences (NCATS), 2019)
Among all 400,000 compounds or so, about 5,500 (1.4%) were called active. This list was built around the results that the source calls inconclusive (neither active nor inactive); the mix of calls is not that of the screen. Calls come from the whole dose curve; as a rule, active = well fitted cell-killing curve with a large enough effect; inconclusive = small, poorly fitted or top-dose-only effect, or effect the other way; inactive = flat fitted curve, though single readings scatter. Potencies beside an inconclusive call are fits to weak or partial responses and may not hold up.

assay: qHTS assay for MDR1-selective chemotherapeutics: Primary screen using the parental adenocarcinoma cell KB-3-1; details: KB-3-1 viability, CellTiter-Glo ATP luminescence, 72 h; series mostly up to 46.1 µM; note: nearly all actives have a fitted effect of over 60% in size
In short: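 Here the drug-naive KB-3-1 line serves as comparator for MDR sub-line selectivity; cells received compound titrations, 72 h at 37 °C, then CellTiter-Glo readout.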
Potency is the fitted concentration of half-maximal effect.

SMILES	Potency
O=[N+]([O-])c1ccc(NC(=S)NCCc2ccc(F)cc2)cc1	inconclusive: 6.51 µM [cytotoxic, partial curve]
CCCn1c(SCC(=O)N2CCc3ccccc3C2)nc2c1c(=O)n(C)c(=O)n2C	inactive
Cc1cc(NC(=O)CCc2ccccc2)c([N+](=O)[O-])cc1C	inconclusive: 29.1 µM [cytotoxic, single point]
CCN1C(=O)[C@H]2[C@@H](c3ccc(C)cc3)N[C@]3(CCCN(Cc4ccc(F)cc4)C3=O)[C@H]2C1=O	inactive
CCc1ccc(CN2CCC(C(=O)Nc3ccc(Oc4ccccc4)nc3)CC2)o1	inconclusive: 32.6 µM [cytotoxic, single point]
COc1ccccc1NC(=O)C(C)OC(=O)c1cc2ccccc2[nH]1 (stereo unspecified)	inconclusive: 18.4 µM [cytotoxic, single point]
Cc1cc(O)c(C)c(O)c1/C=N/NC(=O)c1cccnc1	inconclusive: 14.6 µM [cytotoxic, partial curve]
O=C(c1ccc(NS(=O)(=O)c2cccs2)cc1)N1CCOCC1	inactive
CCCN1C2CCCC1CC(NC(=O)Nc1cccc(C(C)=O)c1)C2 (stereo unspecified)	inactive
CC(C)N(Cc1ccccc1)C(=O)Cn1c(=O)cnc2ccccc21	inconclusive: 18.4 µM [rising, partial curve, poor fit]
O=C(NNc1nc(-c2ccccc2)cs1)c1ccccc1	inconclusive: 29.1 µM [cytotoxic, single point]
Cc1ccc(NC(=O)c2ccnc(C(C)(C)C)c2)cc1	inconclusive: 29.1 µM [cytotoxic, single point]
O=C(CNC(=O)c1ccccc1)N/N=C/c1ccc([N+](=O)[O-])s1	inconclusive: 29.1 µM [cytotoxic, single point]
O=C(CN1CCCC1)Nc1ccc(Oc2ccc(NC(=O)CN3CCCC3)cc2)cc1	inconclusive: 23.1 µM [cytotoxic, single point]
Cc1nc2nc(C)c(CCC(=O)N3CCN(c4ccccn4)CC3)c(C)n2n1	inconclusive: 0.0461 µM [rising, full curve]
COC(=O)Nc1ccc(S(=O)(=O)N2CCC(C)CC2)cc1	inconclusive: 20.6 µM [cytotoxic, single point]
COc1ccccc1NC(=O)C1=C(C)Nc2ncnn2C1c1sccc1C (stereo unspecified)	inactive
CCC(CC)c1nn2c(N)c(/C=C3\C(C)=Nc4ccccc43)c(=O)nc2s1	inactive
Cc1ccc2nc(-c3sc4nc(C)cc(C)c4c3N)[nH]c2c1	inconclusive: 18.4 µM [rising, single point]
Oc1c(N=NC(=S)Nc2ccccc2F)c2ccccc2n1Cc1ccccc1Cl	active: 4.11 µM
Cc1ccc(S(=O)(=O)Nc2ccc(NC(=O)c3c(F)c(F)c(F)c(F)c3F)cc2)cc1	inconclusive: 16.4 µM [cytotoxic, single point]
CN(C)c1nccc(N(Cc2ccccc2)Cc2ccccc2)c1C#N	inconclusive: 23.1 µM [cytotoxic, single point]

Random excerpt: 5 entries already listed, in no set order.
SMILES	Potency
COc1ccccc1NC(=O)C(C)OC(=O)c1cc2ccccc2[nH]1 (stereo unspecified)	inconclusive: 18.4 µM [cytotoxic, single point]
Cc1ccc2nc(-c3sc4nc(C)cc(C)c4c3N)[nH]c2c1	inconclusive: 18.4 µM [rising, single point]
COC(=O)Nc1ccc(S(=O)(=O)N2CCC(C)CC2)cc1	inconclusive: 20.6 µM [cytotoxic, single point]
O=C(c1ccc(NS(=O)(=O)c2cccs2)cc1)N1CCOCC1	inactive
CCCN1C2CCCC1CC(NC(=O)Nc1cccc(C(C)=O)c1)C2 (stereo unspecified)	inactive

Following part.

SMILES	Potency
CCSc1ccc(-c2cc(NC=O)c3ncc(-c4cccc(C(=O)NCCN(C)C)c4)n3c2)cc1	inconclusive: 29.1 µM [cytotoxic, single point]
O=C(NC1CCCc2ccccc21)c1cc(F)cc(F)c1 (stereo unspecified)	inactive
COc1ccc(NC(=O)c2sc3nc4c(cc3c2N)CCCCCC4)cc1Cl	inconclusive: 4.11 µM [cytotoxic, full curve]
CC(=O)/C(=C\Nc1ccc(OCc2ccccc2)cc1)c1ccccc1	inactive
COc1ccc(-c2noc(CN(C)C(=O)c3ccoc3C)n2)cc1OC	inactive
c1ccc(-c2cn(-c3ccccc3)c3[n+]2CCCS3)cc1	inconclusive: 18.4 µM [cytotoxic, single point]
CC1(C)CC(N2CCCC2)=CC(=[N+]2CCCC2)C1	active: 18.4 µM
O=C(Cc1sc(-c2ccccc2Cl)nc1-c1ccccc1)Nc1ccc(F)cc1	inconclusive: 29.1 µM [cytotoxic, single point]
O=C(c1ccc(-n2c(SCc3cc(F)ccc3F)nc3ccccc3c2=O)cc1)N1CCOCC1	inconclusive: 29.1 µM [cytotoxic, single point]
NC(=O)c1ccc(-c2ccc(N3C(c4ccsc4)=Cc4ccc(F)cc4C3CC(=O)c3ccco3)cc2)cc1 (stereo unspecified)	inconclusive: 18.4 µM [cytotoxic, single point]
CC[C@]12c3[nH]c4ccc(Cl)cc4c3CCN1C(=O)[C@@H](CC(=O)NCC13CC4CC(CC(C4)C1)C3)C[C@@H]2C(=O)N1CCN(C(=O)C2CC2)CC1	inconclusive: 32.6 µM [cytotoxic, single point]
COc1ccc(C(CNS(=O)(=O)c2ccc(NC(C)=O)c(OC)c2)N2CCCCC2)cc1 (stereo unspecified)	inactive
CCN(CCC(=O)Nc1ccc(Br)c(C)c1)Cc1ccccc1	inconclusive: 29.1 µM [cytotoxic, single point]
Cc1ccc(C(=O)N2CCN(c3ccc(C(F)(F)F)cn3)CC2)o1	inconclusive: 14.6 µM [cytotoxic, single point]
CN(C)CCCNc1nc2cc(-c3ccsc3)sc2c(=O)n1C	inconclusive: 29.1 µM [cytotoxic, single point]
OC(Cc1ccc2ccccc2n1)c1ccccc1 (stereo unspecified)	inconclusive: 0.0073 µM [rising, full curve, poor fit]
Fc1cccc(CCN2C(=S)NC[C@@H]2CC2CCCCC2)c1	inconclusive: 25.9 µM [cytotoxic, single point]
CCOC(=O)c1c(C)[nH]c(C(=O)C(C)Cl)c1C (stereo unspecified)	inconclusive: 29.1 µM [cytotoxic, single point]
N#CCC(=O)N/N=C/c1cn(Cc2cccc3ccccc23)c2ccccc12	inconclusive: 29.1 µM [cytotoxic, single point]
Cc1ccc2c(c1)cc(C)c1nnc(SCC(=O)NCc3ccco3)n12	inconclusive: 20.6 µM [rising, single point]
Cc1ccc(S(=O)(=O)CCc2nc3ccccc3n2CCC#N)cc1	inconclusive: 20.6 µM [cytotoxic, partial curve]
CCCCC[C@@H]1C=C(C(=O)OCC)[C@H](c2ccccc2)N1S(=O)(=O)c1ccc(C)cc1	inconclusive: 25.9 µM [cytotoxic, single point]

SMILES	Potency
O=C(NCc1ccc(Cl)cc1)C1CCN(S(=O)(=O)c2ccc3c(c2)CCCN3C(=O)C2CCC2)CC1	inconclusive: 13 µM [cytotoxic, partial curve, poor fit]
C=CCOC(=O)C1=C(C)NC(C)=C(C(=O)OCC=C)C1/C=C/c1ccccc1	inconclusive: 29.1 µM [cytotoxic, single point]
O=C(COC(=O)c1ccc(O)cc1)c1ccc2c(c1)OCCO2	inactive
COc1ccc(CNC(=O)CNC(c2ccccc2)c2ccccc2)cc1OC	inactive
O=C(NCC1CCCO1)c1cc2c([nH]c3ccccc32)c(-c2ccc(F)cc2)n1 (stereo unspecified)	inconclusive: 29.1 µM [cytotoxic, single point]
CCn1ccnc1CNC(=O)CC1C(=O)NCCN1CCCc1ccccc1 (stereo unspecified)	inconclusive: 25.9 µM [rising, partial curve, poor fit]
CCOCCc1nn2c(=O)cc(COC(=O)c3ccco3)nc2s1	inactive
COc1ccc(COC[B-](F)(F)F)cc1	inactive
Cc1ccccc1C(=O)c1cccn1CC(=O)NCCN1CCN(c2cccc(C)c2C)CC1	inconclusive: 18.4 µM [cytotoxic, partial curve]
CCN1CCN(CCCNC(=O)c2ccc3c(c2)sc2nc(-c4ccc(C)cc4)cn23)CC1	inconclusive: 29.1 µM [cytotoxic, single point]
O=C(CSc1ccc(-c2cccs2)nn1)Nc1cccc(F)c1	inconclusive: 29.1 µM [cytotoxic, single point]
COc1cccc(N2CCN(C(=O)Cn3ncc4c(=O)oc5ccccc5c43)CC2)c1	inactive
COc1ccc(C(=O)/C=C/c2cc(OC)c(O)c(OC)c2)c(F)c1	inconclusive: 14.6 µM [cytotoxic, partial curve, poor fit]
O=C1CC(c2cccc(F)c2)c2c(n3ncnc3[nH]c2=O)N1 (stereo unspecified)	inconclusive: 23.1 µM [cytotoxic, single point]
O=C(N/N=C/c1cccc2ccccc12)c1cccs1	inactive
COc1ncc(-c2ccc(N3C(c4ccsc4)=Cc4ccccc4C3CC(C)=O)cc2)cn1 (stereo unspecified)	inconclusive: 25.9 µM [cytotoxic, single point]
C#CCOCCOCCOCCNc1nc(N2CCN(C(=O)CCCCCCCCCCNC(=O)Cn3cc(C[C@@H](C)O)nn3)CC2)nc(N2CCN(C(=O)CCCCCCCCCCNC(=O)[C@H](CCCN=C(N)N)n3cc(C[C@@H](C)CC)nn3)CC2)n1	inconclusive: 29.1 µM [cytotoxic, single point]
N/C(CCS(=O)(=O)c1ccc(Cl)cc1)=N\OC(=O)c1ccccc1C(F)(F)F	inconclusive: 29.1 µM [cytotoxic, single point]
CCOc1ccc(NS(=O)(=O)c2ccc(C(=O)N3CCCCCC3)cc2)cc1	inactive
COc1ccc(NC(=O)N(C)C[C@H]2Oc3c(NC(=O)c4nc5ccccc5s4)cccc3C(=O)N([C@@H](C)CO)C[C@H]2C)cc1	inactive
CC(C)c1ccc(Nc2nc(Cl)nc(NCc3ccco3)n2)cc1	inconclusive: 25.9 µM [cytotoxic, single point]
Cc1c(C(=O)OCc2nnc(-c3ccccc3)o2)oc2ccccc12	inactive
